Experiment [1] deals with HCT-15 human colon adenocarcinoma. Kind of experiment: MTT cell growth inhibition, HCT15. Format: cell-based. The conditions noted are these: 24 hours (Table 7). How it is done: (§1) HT-29, SW-480 and HCT-15 human colon adenocarcinoma, MIA PaCa-2 and BxPC-3 human pancreatic cancer, LNCAP human prostate cancer, A549 human lung cancer, MCF-7 (estrogen receptor positive), MDA-MB 231 and SK-BR-3 (estrogen receptor negative) human breast cancer, and Jurkats human leukemia cell lines were obtained from American Type Tissue Collection (Manassas, Va.). All cells lines were grown as monolayers except for the Jurkats which were grown in suspension. […] Single cell suspensions were obtained by trypsinization (0.05% trypsin/EDTA), and cells were counted using a hemocytometer. Viability was determined by the trypan blue dye exclusion method.
(§2) Cell growth inhibitory effect of NOSH compounds were measured using a colorimetric MTT assay kit (Roche, Indianapolis, Ind.). […] The absorbance of the plates was measured on an ELISA reader at a wavelength of 570 nm. […]
(§3) HT-29, SW-480 and HCT-15 human colon adenocarcinoma, MIA PaCa-2 and BxPC-3 human pancreatic cancer, LNCAP human prostate cancer, A549 and H383 human lung cancer, MCF-7, MDA-MB 231 and SK-BR-3 human breast cancer and Jurkat T cell human leukemia cell lines were obtained from American Type Tissue Collection (Manassas, Va.) All cells lines were grown as monolayers except for the Jurkat T cells which were grown as suspension culture. […] Viability was determined by the trypan blue dye exclusion method. […]

For a further experiment, the system named is TNF-α. Nature of the experiment: Plasma TNF-α enzyme immunoassay. Type of experiment: in vivo, rat. Particulars: rats, equimolar oral doses: ASA 180 (1 mmol/kg), NOSH-ASA 477, naproxen 80, NOSH-naproxen 188, sulindac 200, NOSH-sulindac 467 mg/kg; control 11±0.3. How it is done: Fresh samples of blood from the animals were taken by cardiac puncture into heparin-containing vials. The determination of plasma TNF-α was carried out by an enzyme immunoassay kit from R&D systems (Minneapolis, Minn.). Briefly, each sample (50 μL) was incubated with antibodies specific for rat TNF-α and washed three times with assay buffer. An enzyme-linked polyclonal antibody specific for rat TNF-α conjugated to horseradish peroxidase was then added to the wells. Following washing of unbound antibody-enzyme reagent, a substrate solution (containing tetramethylbenzidine, TMB, plus hydrogen peroxide) was added to the wells. […] The intensity of the color was determined by measuring the OD of the yellow color in a standard ELISA plate reader at 450 nm. Sensitivity of this TNF-α assay was determined by adding two standard deviations to the mean optical density value of 20× zero standard replicates and calculating the corresponding concentration. […] The results are expressed as pg/mL. […]
This was done by an enzyme immunoassay kit from R&D systems (Minneapolis, Minn.) following the protocol described by the manufacturer. […] The intensity of this was measured at 450 nm. Sensitivity of this TNF-α assay was determined by adding two standard deviations to the mean optical density value of 20× zero standard replicates and calculating the corresponding concentration. […]

Experiment [2] concerns Jurkat T cell human leukemia. Nature of the experiment: MTT cell growth inhibition, Jurkat. Type of experiment: cell-based. The conditions noted are these: 24 hours (Table 7). How it is done:
as §1, §2, §3

The text below walks through data of US10450260B2, “NO- and H2S-releasing compounds” (RESEARCH FOUNDATION OF THE CITY UNIVERSITY OF NEW YORK, priority 2011, dated 2019).

By IC50 is commonly meant the concentration at which inhibition is half-maximal.

SMILES strings stand for the structures.

`COc1ccc2cc([C@H](C)C(=O)O)ccc2c1` [naproxen, reference compound]: the figures for the IC50 in experiment [1] and in experiment [2] were 2850 µM and 2550 µM, respectively. Also, the “plasma TNFα concentration” value in the experiment on TNF-α was 150 ± 2 pg/mL.
